# Publication doi:10.1101/727578
# Chains of the proteins cited; added tags and fusions are not shown. Lines headed by an entry give the natural chain unless they say otherwise; changes in a name come on top.
# UniProt Q8N4B1, whole entry: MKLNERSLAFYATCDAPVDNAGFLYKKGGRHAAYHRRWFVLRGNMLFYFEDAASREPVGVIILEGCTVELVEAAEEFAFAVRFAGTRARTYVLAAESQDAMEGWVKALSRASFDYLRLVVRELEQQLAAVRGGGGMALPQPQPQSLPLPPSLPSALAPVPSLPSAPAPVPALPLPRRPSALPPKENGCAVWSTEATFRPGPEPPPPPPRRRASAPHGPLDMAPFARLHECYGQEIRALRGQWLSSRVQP
# UniProt Q01968, whole entry: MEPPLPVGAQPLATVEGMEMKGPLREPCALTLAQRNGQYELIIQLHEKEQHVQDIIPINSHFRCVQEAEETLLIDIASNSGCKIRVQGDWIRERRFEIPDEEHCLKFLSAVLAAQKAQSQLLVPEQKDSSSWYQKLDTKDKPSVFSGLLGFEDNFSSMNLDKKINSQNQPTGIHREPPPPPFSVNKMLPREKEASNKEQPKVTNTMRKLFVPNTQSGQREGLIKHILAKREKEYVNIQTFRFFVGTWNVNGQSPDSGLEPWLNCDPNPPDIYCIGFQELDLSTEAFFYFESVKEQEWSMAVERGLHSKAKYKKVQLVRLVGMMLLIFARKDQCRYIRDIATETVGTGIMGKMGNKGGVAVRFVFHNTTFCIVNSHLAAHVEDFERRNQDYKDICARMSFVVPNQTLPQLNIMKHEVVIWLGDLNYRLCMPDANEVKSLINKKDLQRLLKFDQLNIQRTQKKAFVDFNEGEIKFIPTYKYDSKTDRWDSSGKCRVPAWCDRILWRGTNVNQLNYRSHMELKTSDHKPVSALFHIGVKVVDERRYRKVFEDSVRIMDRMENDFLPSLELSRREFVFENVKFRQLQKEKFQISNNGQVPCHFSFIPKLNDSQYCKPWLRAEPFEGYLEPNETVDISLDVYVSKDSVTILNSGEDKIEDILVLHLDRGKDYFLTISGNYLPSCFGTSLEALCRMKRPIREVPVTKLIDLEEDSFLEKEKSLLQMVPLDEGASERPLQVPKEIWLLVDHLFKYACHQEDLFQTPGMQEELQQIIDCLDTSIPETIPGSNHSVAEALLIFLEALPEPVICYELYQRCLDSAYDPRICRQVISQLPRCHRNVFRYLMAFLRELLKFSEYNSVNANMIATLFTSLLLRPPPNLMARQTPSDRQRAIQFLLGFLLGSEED
# Changes are numbered by the printed parent chain. Results are given in words; binding and its absence hold for the method and conditions named. In cells and extracts the contact can be indirect. Some entries that bind do so weakly or less than the wild type. Sequences can lack the tags named with a protein.
# Legend:
# [1] = target: T1, GFP-tagged full length PHETA1^R6C (human) (UniProt Q8N4B1); test: co-IP
# T1 sequence: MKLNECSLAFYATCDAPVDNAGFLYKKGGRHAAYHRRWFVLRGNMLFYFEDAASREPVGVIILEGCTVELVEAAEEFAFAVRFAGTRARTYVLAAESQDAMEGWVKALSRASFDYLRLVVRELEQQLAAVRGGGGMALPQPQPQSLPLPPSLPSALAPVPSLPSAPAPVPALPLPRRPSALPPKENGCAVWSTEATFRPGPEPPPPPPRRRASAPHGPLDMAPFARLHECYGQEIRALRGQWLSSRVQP
# [2] = target: T2, GFP-tagged full length WT PHETA1 (human) (UniProt Q8N4B1); test: co-IP
# T2 sequence: T1 sequence with C6R
substance,measurement,setting,value
full length HA-tagged OCRL1 (from UniProt Q01968 1-901) (enzyme),binding,[1],binds
same,binding,[2],binds
